The supplement of paper PMC6078165

Tested on: BT20
Assay: relative JC-1 red fluorescence (viability) vs pre-drug, coculture with fibroblast (fraction); higher = more viable cancer cells
Method: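 JC-1 labelled TNBC cells cocultured 1:1 (1,500 cells each) with CellTrace Violet stained primary or stromal fibroblasts in 384-well plates in FluoroBrite medium, treated with one of 42 anticancer drugs at 0.1, 1, 10 or 100 uM. JC-1 red fluorescence (mitochondrial integrity in cancer cells only) was read by plate reader every 8 h for 72 h. Values are normalised to each well's pre-drug value. The stock of one drug was tenfold lower, so its dose labels may be too high.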

CO[C@H]1C[C@@H]2CC[C@@H](C)[C@@](O)(O2)C(=O)C(=O)N2CCCC[C@H]2C(=O)O[C@H]([C@H](C)C[C@@H]2CC[C@@H](OCCO)[C@H](OC)C2)CC(=O)[C@H](C)/C=C(\C)[C@@H](O)[C@@H](OC)C(=O)[C@H](C)C[C@H](C)/C=C/C=C/C=C/1C [Everolimus]
relative JC-1 red fluorescence
Details	8 h	16 h	24 h	32 h	40 h	48 h	56 h	64 h	72 h
10 µM, coculture fibroblast: C12385	0.8653	0.848	0.8236	0.78413	0.7288	0.704	0.667	0.646	0.624
10 µM, coculture fibroblast: H6013	0.8767	0.887	0.858	0.816	0.934	0.906	0.91	0.844	0.855
10 µM, coculture fibroblast: H6019	0.87	0.841	0.845	0.815	0.792	0.793	0.771	0.765	0.755
10 µM, coculture fibroblast: H6076	0.852	0.873	0.941	0.95	0.933	0.916	0.92	0.913	0.91
10 µM, coculture fibroblast: H6231	0.857	0.871	0.9712	0.9022	0.849	0.804	0.749	0.716	0.682
10 µM, coculture fibroblast: HADF	0.83	0.77	0.953	0.878	0.873	0.914	0.906	0.915	0.857
10 µM, coculture fibroblast: HCFa	0.945	0.892	0.871	0.864	0.854	0.839	0.786	0.803	0.916
10 µM, coculture fibroblast: HCPF	0.8482	0.864	0.9826	0.934	0.916	0.8765	0.855	0.8498	0.808
10 µM, coculture fibroblast: HHSteC	0.961	0.879	0.908	0.945	0.93	0.916	0.902	0.89	0.879
10 µM, coculture fibroblast: HMF	0.871	0.713	0.9791	0.9369	0.911	0.8682	0.8258	0.7795	0.7342
10 µM, coculture fibroblast: HPFa	0.9621	0.9623	0.965	0.897	0.862	0.822	0.784	0.768	0.733
10 µM, coculture fibroblast: HUF	0.859	0.868	0.95	0.884	0.843	0.804	0.783	0.772	0.755
10 µM, coculture fibroblast: Hs5	0.877	0.899	0.974	0.93	0.891	0.8511	0.815	0.785	0.764
10 µM, coculture fibroblast: Hs27A	0.743	0.8	0.951	0.857	0.963	0.948	0.931	0.92	0.8794
10 µM, coculture fibroblast: Hs343T	0.87	0.8745	0.9471	0.9146	0.8731	0.82	0.7809	0.764	0.731
10 µM, coculture fibroblast: WS1	0.9065	0.9104	0.898	0.862	0.825	0.815	0.787	0.766	0.75
100 µM, coculture fibroblast: C12385	0.898	0.7395	0.748	0.681	0.576	0.494	0.426	0.371	0.31
100 µM, coculture fibroblast: H6013	0.893	0.797	0.823	0.819	0.685	0.608	0.662	0.699	0.712
100 µM, coculture fibroblast: H6019	0.829	0.664	0.527	0.358	0.26	0.263	0.27	0.288	0.298
100 µM, coculture fibroblast: H6076	0.868	0.65	0.49	0.443	0.436	0.464	0.504	0.52	0.522
100 µM, coculture fibroblast: H6231	0.89	0.815	0.772	0.706	0.653	0.586	0.577	0.57	0.558
100 µM, coculture fibroblast: HADF	0.823	0.72	0.812	0.714	0.723	0.595	0.589	0.633	0.658
100 µM, coculture fibroblast: HCFa	0.7545	0.853	0.911	0.744	0.643	0.564	0.58	0.615	0.628
100 µM, coculture fibroblast: HCPF	0.866	0.839	0.842	0.698	0.596	0.534	0.498	0.475	0.44
100 µM, coculture fibroblast: HHSteC	0.913	0.842	0.645	0.482	0.352	0.275	0.294	0.316	0.327
100 µM, coculture fibroblast: HMF	0.936	0.556	0.355	0.314	0.331	0.337	0.363	0.359	0.358
100 µM, coculture fibroblast: HPFa	0.963	0.761	0.817	0.634	0.509	0.381	0.386	0.418	0.434
100 µM, coculture fibroblast: HUF	0.791	0.886	0.921	0.716	0.595	0.54	0.554	0.553	0.548
100 µM, coculture fibroblast: Hs5	0.961	0.747	0.517	0.469	0.48	0.504	0.534	0.534	0.523
100 µM, coculture fibroblast: Hs27A	0.8611	0.842	0.75	0.884	0.831	0.856	0.791	0.812	0.825
100 µM, coculture fibroblast: Hs343T	0.953	0.801	0.447	0.407	0.418	0.422	0.445	0.456	0.442
100 µM, coculture fibroblast: WS1	0.902	0.8666	0.726	0.741	0.544	0.426	0.328	0.266	0.252

Values are relative to the signal before dosing, not to a vehicle control; the signal also falls without drug.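 Fibroblast labels denote human fibroblasts, mainly primary ones from uterus (C12385, HUF), lung (H6013), bone (Hs27A), adrenal (HADF) and skin (WS1), plus mammary HMF and breast cancer-associated Hs343T. Cancer cells are basal-like or mesenchymal-like triple-negative breast cancer lines. A hit is a response shift exceeding 3x replicate standard deviation. The tissue of the other fibroblasts is not given here.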
